PubChem BioAssay AID1508600 (Functional Genomics Laboratory (NCATS/FGL), 2020)
About 3,700 (7%) of roughly 53,000 sequences were called active.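 Rule for the calls: active = gene knockdowns whose robust z-score for IL-1 alpha signal is at least 2 or at most -2, so actives lie on both sides; inactive = the rest.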 Some of the results follow.

Assay: Components of the Cytosolic LPS Sensing Pathway: Gene Identification via Genome-wide siRNA Screen;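 note: robust z of the log signal after scaling to non-targeting control siRNA wells of the plate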
Conditions: RAW264.7 macrophages, IL-1a HTRF, actives lie on both sides, screened at 100 nM (by protocol), cells primed 5 h with Pam3CSK4 first
How it was run: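 RAW264.7 mouse macrophages reverse-transfected with single siRNAs (100 nM final) for 48h, primed with Pam3CSK4 for 5 hours, then transfected with LipidA for 24 hour. Supernatant IL-1a read by HTRF; values normalized to negative-control median, log-transformed robust z-scores.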

| Sequence | z-score |
| --- | --- |
| AUUCUGAACACUCCUCGGATT against Spink8 | inactive: -0.0439 |
| GGAUCCCAGGGAUCGAAUGTT against Osbpl9 | inactive: 0.402 |
| GCUAUAUCCACCUUAUGUCTT against Pigq | inactive: -0.635 |
| GACCCUAGCUCACUUUGGUTT against Gm9903 | inactive: 0.287 |
| GGAGAAACUGUAGUAAAUGTT against Dip2b | inactive: 0.418 |
| AGUAUGGCAAAAGGGAACATT against Iigp1b | inactive: 0.0389 |
| GGAGUUUGAUCAGAUCCUATT against Asf1b | inactive: 1.74 |
| GGAAGCAUGCGAGAUCUAUTT against Napa | inactive: 1.31 |
| GGAAGCAGAUCAAAGACAUTT against Efhd2 | inactive: 0.393 |
| GGUCCAGAAUGUGUCCCAGTT against Olfm2 | inactive: 0.257 |
| GGUGAAACCUGUCAUUCACTT against Dcdc2a | inactive: -0.405 |
| GGCGGUAACCACUUUCACGTT against Mycn | inactive: -0.567 |
| GGGUGAUUUUUGUAAGAUATT against Mpp2 | inactive: -1.2 |
| GGAAAAAAUCACUUUCAUCTT against Clasrp | inactive: -0.657 |
| GGAGGUGCUUUAUGUCGAUTT against Kdm6a | inactive: 0.789 |
| CCCAAGCAAUUACAGUACUTT against Olfr263 | inactive: -0.543 |
| GGAGAAGCUACUCAACAAUTT against Ndufs8 | inactive: 0.319 |
| CGUUGGAUCUUGAUAAAACTT against Lpar2 | inactive: 0.179 |
| GGCCUUGCGUCUCAACCUUTT against Tma16 | inactive: 0.32 |
| GGACCUGAGUGUGUCUCAGTT against Serpina3m | inactive: -0.477 |
| CCUCUCUCAACCAGUGAAATT against Grb7 | inactive: -1.6 |
| GGUGAAUGUAGUGUUAAAATT against Cyrib | inactive: -0.204 |

| Sequence | z-score |
| --- | --- |
| GGAAGUGAAUGGACAGCCATT against Mpp2 | inactive: -1.22 |
| CCAAGAACUAUAUUUCUUCTT against Tars | inactive: -0.0872 |
| GCCACUGGAGUAUAGCCAGTT against Pcnx3 | inactive: 0.019 |
| GGAGAAAGAGACGGACAACTT against Fgfr1 | active: 2.8 |
| GGAAGGUUUCGCUUUGAAUTT against Tarm1 | inactive: -0.469 |
| GGUGGCAUAUACUUUGCUUTT against Cmtm2a | inactive: 0.583 |
| GGUUGCAUUUCUCAAGUAUTT against Olfr19 | inactive: 0.41 |
| GGAGGUGCAGAAAAUCAUCTT against Mab21l3 | inactive: 0.258 |
| GCUGGAUGCAAAUGAUCUUTT against D17H6S56E-5 | inactive: 0.0271 |
| GGCUGGAUACUCAGUGCUATT against Abhd16b | active: 6.41 |
| CCUGAUCUAAUCCUAAAUGTT against Pgr | inactive: -0.171 |
| GGAAUUUCUGCGCACCUAUTT against Ctnnbip1 | inactive: 1.19 |
| GGGACAACCUGGAUGACAUTT against Coq6 | inactive: -0.0644 |
| GCAGGUGAGAAAGUAUAAGTT against Mro | inactive: -1.09 |
| GGAUCAAAAGGUAAAGAGATT against Rbbp5 | inactive: 1.63 |
| GCACUUAACAGAGAUACAATT against Cldn12 | inactive: -0.408 |
| CCAAGAGAUGCUAGCUAAUTT against Platr28 | inactive: -0.495 |
| GGAAAACAUCCCUUUCGCATT against Septin1 | inactive: 1.04 |
| GGUAGAAUUGAAUUCAAUCTT against Csrnp3 | inactive: -0.812 |
| GGAGACAAAGAAGAGAAAGTT against Ddx24 | inactive: 0.642 |
| GGUCAAAGUGUGUUAAGUUTT against Tmem209 | inactive: -1.71 |
| GGGCUAUGCAAAUUUACAATT against Poglut2 | inactive: -0.607 |

| Sequence | z-score |
| --- | --- |
| CCCAAUACAAAUCAGUCUATT against Perm1 | inactive: 0.86 |
| CGGACUAUAUAGAGAGGGATT against Purg | inactive: -0.819 |
| GCACUCUUUCCAAAAUAGUTT against Klf12 | inactive: 0.0398 |
| GGGAAAGUAAUUGAUAAACTT against Mtrr | inactive: 0.59 |
| CCUACAUCAGGUCAGCAAGTT against Mrto4 | inactive: 1.26 |
| CCAGUAUGAAAGCUUAAAGTT against Ipo13 | inactive: 0.159 |
| GGCUUCCUACCUAAGGCUUTT against Bora | inactive: -0.924 |
| GGACAGGCAGCUAACACUATT against Foxk1 | inactive: 0.221 |
| GGAGUCCACCCUUCAUCUGTT against Rps27a | inactive: 0.355 |
| GCUCCAUGGAAUAAUUAAATT against Gm4425 | inactive: -0.895 |
| GCAUUGUAAGUUGAAAACATT against Rbm43 | inactive: 1.53 |
| GUUAUGGAGCAAUGUCUAUTT against Olfr1248 | inactive: 0.52 |
| GGCUUCAUUUCCUAUAAUGTT against Tcaf1 | inactive: -0.601 |
| GGAUGGUCGAAACAAUAACTT against Stk32b | active: 2.16 |
| ACCUGAAUUUGGUGACUGATT against Rdh18-ps | inactive: 0.368 |
| GGAAGAUUAAGCGAGAUAUTT against Rnf146 | inactive: -0.229 |
| GAAGGGACUUCAAAGUUGATT against Ndufb10 | active: 3.3 |
| GGCAUACACCACUUAGUAATT against Sumo2 | inactive: -0.79 |
| GCAACGAGAACUCUUUUUATT against Spen | inactive: 1.4 |
| GGACAUUUUUGGGAAAGAUTT against Rpap3 | inactive: -0.0699 |
| GGGUUGCUACUCACAAUGUTT against Syngr2 | inactive: 0.244 |
| GGAGAUGAAGAAGAUAUUGTT against Smoc2 | inactive: -0.764 |

24 successive records from above:

| Sequence | z-score |
| --- | --- |
| GGUCAAAGUGUGUUAAGUUTT against Tmem209 | inactive: -1.71 |
| GGGCUAUGCAAAUUUACAATT against Poglut2 | inactive: -0.607 |
| CCCAAUACAAAUCAGUCUATT against Perm1 | inactive: 0.86 |
| CGGACUAUAUAGAGAGGGATT against Purg | inactive: -0.819 |
| GCACUCUUUCCAAAAUAGUTT against Klf12 | inactive: 0.0398 |
| GGGAAAGUAAUUGAUAAACTT against Mtrr | inactive: 0.59 |
| CCUACAUCAGGUCAGCAAGTT against Mrto4 | inactive: 1.26 |
| CCAGUAUGAAAGCUUAAAGTT against Ipo13 | inactive: 0.159 |
| GGCUUCCUACCUAAGGCUUTT against Bora | inactive: -0.924 |
| GGACAGGCAGCUAACACUATT against Foxk1 | inactive: 0.221 |
| GGAGUCCACCCUUCAUCUGTT against Rps27a | inactive: 0.355 |
| GCUCCAUGGAAUAAUUAAATT against Gm4425 | inactive: -0.895 |
| GCAUUGUAAGUUGAAAACATT against Rbm43 | inactive: 1.53 |
| GUUAUGGAGCAAUGUCUAUTT against Olfr1248 | inactive: 0.52 |
| GGCUUCAUUUCCUAUAAUGTT against Tcaf1 | inactive: -0.601 |
| GGAUGGUCGAAACAAUAACTT against Stk32b | active: 2.16 |
| ACCUGAAUUUGGUGACUGATT against Rdh18-ps | inactive: 0.368 |
| GGAAGAUUAAGCGAGAUAUTT against Rnf146 | inactive: -0.229 |
| GAAGGGACUUCAAAGUUGATT against Ndufb10 | active: 3.3 |
| GGCAUACACCACUUAGUAATT against Sumo2 | inactive: -0.79 |
| GCAACGAGAACUCUUUUUATT against Spen | inactive: 1.4 |
| GGACAUUUUUGGGAAAGAUTT against Rpap3 | inactive: -0.0699 |
| GGGUUGCUACUCACAAUGUTT against Syngr2 | inactive: 0.244 |
| GGAGAUGAAGAAGAUAUUGTT against Smoc2 | inactive: -0.764 |

(next part)

| Sequence | z-score |
| --- | --- |
| CCCUUUGUUCAAUGUCCCATT against Gpr137c | inactive: -0.707 |
| GGAUAAUUGAUCAUAGAGGTT against Ufm1 | inactive: -0.495 |
| GCAGUCUUGGAAAUAACGATT against Spaca1 | inactive: 1.3 |
| GGAGCUGAUCGAGAAGAUCTT against Xrcc3 | inactive: -1.8 |
| GGAACUUUAUGUGGAAAGATT against Vmn1r235 | inactive: -0.449 |
| GCCAUCGAUGUACUGAGCUTT against Psme2 | inactive: 0.525 |
| GGAUGUGGAUGAAUGCAGATT against Masp2 | inactive: -0.106 |
| CCUCGCUGUAUCUUAACAUTT against Dppa2 | inactive: -0.742 |
| GGAAGAGCCAUCGUUUGCCTT against Denn2b | inactive: -0.36 |
| GGUUUACCAUGCAUAUUAUTT against Txnrd2 | inactive: -0.0102 |
| GGACAAUCAACUAAAGCUCTT against Stab2 | inactive: 1.14 |
| GGUCAUGGAUGUCACAGAGTT against Mink1 | active: -2.17 |
| GCUAAUGGUAUAAAUGGAUTT against Serinc5 | inactive: 0.925 |
| GCCUGAGAAGAUAGACUGATT against Pigs | inactive: 0.114 |
| CGUGGUUGUACAUAUUUGUTT against Trip10 | inactive: 0.39 |
| GGUGCUCAAAUCCUCUUGATT against Ctps | inactive: -0.0545 |
| GGGUGAUGUCACUGUCAUCTT against Gabrg2 | inactive: 0.434 |
| CCAGGAUCACCAAAAUGGATT against Slit3 | inactive: -1.18 |
| GGUGUUUAAUAAUGUUGUCTT against Olfr976 | inactive: -0.27 |
| GGAAGGAAGUGGGUUACUUTT against Olfr156 | inactive: 0.309 |
| CCCUUCCAACAAUUAUACUTT against Cltrn | inactive: 0.0851 |
| CCAUGUGAAAGUAUAAGAATT against Fmo2 | inactive: 0.416 |

| Sequence | z-score |
| --- | --- |
| GGAAUCCUCGGCAGAUAAATT against Rpl24 | active: 2.31 |
| GGACACCAUGCCACAGACATT against Hlx | inactive: -1.43 |
| UUAUGCUGACCUCUAUCUUTT against Akr1c19 | active: 2.33 |
| GCAACAAGUUCGAAAUGAATT against Etv6 | inactive: 1.23 |
| GGCAUCGUAAAGGACAUCATT against Rpl8 | inactive: 1.22 |
| CCCUUUAAACCUCUUCAGATT against St7l | inactive: -0.356 |
| CCAGUAAAAAUUGAAGGCUTT against Capza2 | inactive: 0.565 |
| GCUGUCUACAGACAUCGAUTT against Ung | inactive: 0.954 |
| GCUGCUUUGCUAUCUCCUGTT against Apof | active: -2.25 |
| GGAUGAGAACAGCAACCAGTT against Bcl7b | active: -2.22 |
| GGCGAUAUUCUUAAUUAUCTT against Mfsd6 | inactive: 0.735 |
| GGACCAUUUCCAUAGAGACTT against Slc10a6 | inactive: -0.241 |
| GGAGGUGGAACUGCUGUAUTT against Fam180a | inactive: -0.257 |
| GCUACGUGAGAAUUCCGCCTT against Cux1 | inactive: -0.459 |
| GGACAGCCAGGACUUCUCATT against Iah1 | inactive: -0.399 |
| GGACAUUAUUAUGGAUGAUTT against Arl2bp | inactive: -1.71 |
| GGAUGUCAGCUGGUGGUUATT against Tmprss6 | inactive: -0.607 |
| GGCCAUGAUCAAAACGUAUTT against Leng8 | inactive: -1.54 |
| GGACUCUGUCUGUAAACAGTT against Nup43 | inactive: -1.01 |
